The record followed here is patent US7993869.

Results are given in words; binding and its absence hold for the method and conditions named. Binding calls can cover weak binding; strength is not graded here.

This assay has as its target α-gliadin (wheat). In words: Western blot.

B1: anti-Glia-α2/9 mAb (antibody, IgG1, V domains shown)
VH: EVKLVESGGGLVKPGGSLKLSCAASGFTFSTYAMSWVRQTPEKRLEWVASISSGGSTTYYPDSVKGRFTISRDNARNILYLQMSSLRSEDTAMYYCARVPTYKDYAMDYWGQGTSVTVSS
VL: DVVMTQTPLSLPVSLGDQASISCRSSQSLVHSNGNTYLHWYLQKPGQSPKLLIYKVSNRFSGVPDRFSGSGSGTDFTLKISRVEAEDLGVYFCSQSTHVLTFGAGTKLELKR
As for B1, the binding result is given as “binds”.
